# “Also recorded” adds a separate entry of the source. Part of at least one peptide drawing is inferred or uncertain, most often the ends. Peptide text beside a SMILES is read from it. * marks the point of attachment. 5FAM = O=C1OC2(c3ccc(O)cc3Oc3cc(O)ccc32)c2ccc(C(=O)*)cc21
# Key:
# Assay type in all cases: cell-based
# A549 cell line = test: Kinetic profiling of CPP peptides using image based high content screening; details: derivatives of the average of intensity histograms, A549 cells
# HeLa cells [1] = test: Confocal microscopy of peptide membrane penetration and cellular distribution; details: 10 uM, 37° C., 1 h
# Description: To determine qualitative validation of peptide membrane penetration, HeLa cells from 5 ml of confluent T75 flask were seed in 12 well plate at 10×10^4 cells/mL in 0.5 ml DMEM supplied with 10% Fetal Calf Serum. […] DiD (DiD-[1,1′-Dioctadecyl-3,3,3′,3′-tetramethylindodicarbocyanine iodide] Lipophilic membrane tracer) (5 ug/ml) was added to each well and incubated for 5 min at 4° C., washed twice with cold PBS and fixed with 3.7% PFA 20′ RT. Cells were rinsed with PBS and mounted on slides for confocal microscopy analysis.
# A549 cells = test: FACS binding analysis of CPP conjugated liposomes; details: FAM-CPP conjugated to hyaluronan coated liposomes, 30 minutes on ice
# Description: Liposome preparation was carried out as described in Peer D., at al., 2008, Science 319, 627-630, Briefly, liposomes (60% soy-pc, 20% DPPE 20% cholesterol mol/mol) were prepared at a concentration of 40 mg/ml (Soy PC-273 mg, DPPE-81.2 mg Cholesterol-145.4 mg in 10 ml of ethanol). After a complete dissolvent, the solution was evaporated in a rotary evaporator (BUCHI R-210). Following the evaporation the dry lipid film was hydrated in 10 ml of HEPES (PH 7.4) and the solution was shaken (2 hr 65° C.). The MLV were reduced to ULV with an average size of ˜150 nm (Zetasizer Nano ZS system) by passing them through an extruder (Lipex) using filtration membranes in a serially manner ([…]). Average zeta potential of the ULV was −3 mV (Zetasizer Nano ZS system).
# Hyaluronan (HA) (700 KDa Lifecore) was dissolved in 0.2M MES buffer (PH 5.5) to a final concentration of 5 mg/ml. HA was activate with EDC and solfo-NHS at a molar ratio of 1:1:6. After 30 min of activation the liposomes were added and the pH was adjusted to 7.4. The solution was incubated at room temp (2 hr). The free HA was removed by 3 repeated ultracentrifugations. The resulting HA-ULV's were at an average of 175 nm in size. […]
# HeLa cells [2] = test: Flow cytometry (FACS) quantification of cellular uptake of FAM labeled peptides; details: FAM labeled peptide, 37° C.
# Description: To determine the efficiency of peptide loading, HeLa cells (ATCC number CCL-2TM (Manassas, Va.) grown in DMEM medium with stabilized glutamine supplemented with 10% fetal calf serum (Biological Industries, Beit Haemek, Israel), were seeded at a density of 20,000 per well in 96 U shape-well plates (Nunc A/S, Roskilde, Denmark) in serum containing DMEM (D-Mem W/O Na Pyr, product number 41965039).
# After 24 hours, the cells were washed twice with 300 μL serum free OptiMEM (Reduced Serum Media, buffered with HEPES and sodium bicarbonate and supplemented with hypoxanthine, thymidine, sodium pyruvate, L-glutamine, trace elements and growth factors) medium and incubated in 50 μL serum free OptiMEM, containing peptides in the appropriate concentrations for 1 hour at 37° C. Each condition was tested in triplicates. After incubation, cells were washed with serum free medium, detached by trypsinization for 5 minutes, suspended in ice-cold PBS (phosphate buffered saline) containing 0.1% (w/v) BSA (bovine serum albumin), and measured immediately by flow cytometry (BD FACS Calibur System, Becton Dickinson, Heidelberg, Germany). The fluorescence of approximately 10,000 vital cells was acquired and gated based on sideward and forward scatter. […]
compound,measurement,setting,value
"CC(C)C[C@H](NC(=O)[C@H](CCCCN)NC(=O)[C@H](CCCCN)NC(=O)[C@H](CC(C)C)NC(=O)[C@@H](NC(=O)[C@H](CCCCN)NC(=O)[C@H](CCCCN)NC(=O)c1ccc2c(c1)C(=O)OC21c2ccc(O)cc2Oc2cc(O)ccc21)[C@@H](C)O)C(=O)N[C@@H](Cc1c[nH]c2ccccc12)C(=O)N[C@@H](CCCCN)C(=O)N[C@@H](CCCCN)C(=O)N[C@@H](CCCCN)C(=O)N[C@@H](CCCCN)C(=O)N[C@@H](CCCNC(=N)N)C(=O)N[C@@H](CCCCN)C(N)=O [S24, KKTLKKLWKKKKRK] (5FAM-KKTLKKLWKKKKRK-NH2)",kinetic profile of internalization (comparison),A549 cell line,faster kinetic profile than S22
same,accumulation of FAM labeled peptide inside the cell (confocal images),HeLa cells [1],strong cell membrane penetration capability; also recorded: efficient cellular uptake and intracellular accumulation
same,binding to A549 cells (FACS),A549 cells,high binding levels
same,Geometric mean of FL1 intensity,"HeLa cells [2]; 10 uM, 1 hour, average of a number of experiments",1513.63
same,cellular uptake (in words),HeLa cells [2]; flow cytometry,very efficient intracellular uptake
